Measured values reported in paper PMC4991853.
No constants are given. Whether binding was seen depends on the method and setting. In cells and extracts the contact can be indirect. Binding calls can cover weak binding; strength is not graded here.

Protein sequences, listed by entry. Tags and fused reporters are not part of them. Lines headed by an entry give the natural chain unless they say otherwise; changes in a name come on top.
UniProt O35344: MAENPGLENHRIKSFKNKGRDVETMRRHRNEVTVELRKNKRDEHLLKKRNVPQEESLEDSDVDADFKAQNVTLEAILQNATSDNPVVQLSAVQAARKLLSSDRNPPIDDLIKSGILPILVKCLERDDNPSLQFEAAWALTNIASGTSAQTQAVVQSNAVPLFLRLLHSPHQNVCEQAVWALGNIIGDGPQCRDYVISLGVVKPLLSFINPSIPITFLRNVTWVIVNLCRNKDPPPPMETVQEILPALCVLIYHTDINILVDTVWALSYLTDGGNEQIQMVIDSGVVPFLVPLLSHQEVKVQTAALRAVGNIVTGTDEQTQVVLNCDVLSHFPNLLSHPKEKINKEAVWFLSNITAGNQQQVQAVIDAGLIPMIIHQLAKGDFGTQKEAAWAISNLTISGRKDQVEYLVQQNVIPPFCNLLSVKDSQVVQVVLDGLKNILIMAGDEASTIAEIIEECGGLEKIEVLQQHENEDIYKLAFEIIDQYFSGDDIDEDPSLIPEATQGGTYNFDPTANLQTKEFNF
UniProt Q60960: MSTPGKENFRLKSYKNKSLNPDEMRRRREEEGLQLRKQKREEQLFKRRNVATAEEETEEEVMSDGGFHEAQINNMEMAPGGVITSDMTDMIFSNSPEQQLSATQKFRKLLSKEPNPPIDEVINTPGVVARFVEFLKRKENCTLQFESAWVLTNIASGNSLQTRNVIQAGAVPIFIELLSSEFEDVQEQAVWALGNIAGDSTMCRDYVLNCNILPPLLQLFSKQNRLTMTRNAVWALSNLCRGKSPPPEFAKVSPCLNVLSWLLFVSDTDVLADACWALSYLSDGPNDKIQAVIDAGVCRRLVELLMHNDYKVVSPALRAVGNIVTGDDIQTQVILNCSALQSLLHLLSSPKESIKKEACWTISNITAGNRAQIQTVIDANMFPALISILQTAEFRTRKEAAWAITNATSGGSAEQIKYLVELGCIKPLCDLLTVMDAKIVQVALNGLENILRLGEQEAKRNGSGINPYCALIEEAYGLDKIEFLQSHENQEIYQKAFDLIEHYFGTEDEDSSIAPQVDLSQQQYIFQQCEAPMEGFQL
UniProt O35343: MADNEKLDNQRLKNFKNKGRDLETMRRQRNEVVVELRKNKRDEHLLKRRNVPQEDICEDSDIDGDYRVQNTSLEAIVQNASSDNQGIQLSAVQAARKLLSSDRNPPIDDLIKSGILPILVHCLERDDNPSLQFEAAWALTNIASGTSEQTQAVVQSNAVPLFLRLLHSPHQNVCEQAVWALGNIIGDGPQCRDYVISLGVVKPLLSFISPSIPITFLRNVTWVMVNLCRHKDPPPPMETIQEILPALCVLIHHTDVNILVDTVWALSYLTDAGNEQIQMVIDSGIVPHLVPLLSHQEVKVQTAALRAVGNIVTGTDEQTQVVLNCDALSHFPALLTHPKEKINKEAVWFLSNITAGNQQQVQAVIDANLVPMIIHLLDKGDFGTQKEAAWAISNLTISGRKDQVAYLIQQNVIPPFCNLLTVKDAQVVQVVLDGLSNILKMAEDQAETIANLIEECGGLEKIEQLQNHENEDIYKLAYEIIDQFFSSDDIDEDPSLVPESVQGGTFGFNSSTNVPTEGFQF

Biological target: GST-tagged HNF1β DNA binding domain (human) (UniProt P35680)
Test: pull-down; crude E. coli extracts of GST-tagged HNF1β^DBD and ΔIBB Importin-α mixed, bound to glutathione resin, washed, eluted by TEV cleavage between GST and HNF1β^DBD; SDS-PAGE

| binding | Substance |
| --- | --- |
| binds weakly | ΔIBB-mImportin-α4 (from UniProt O35344) (domain or fragment) |
| binds | ΔIBB-mImportin-α5 (from UniProt Q60960) (domain or fragment) |
| binds weakly | ΔIBB-mImportin-α7 (from UniProt O35345) (domain or fragment) |
| binds weakly | ΔIBB-mImportin-α3 (from UniProt O35343) (domain or fragment) |
